HELM strings list residues between dots; [ac] is acetyl, [am] amide, other brackets name non-standard units.

The first data set is described as follows: general procedure: Fmoc solid-phase peptide synthesis; Rink Amide MBHA resin; PyBOP, HOBt monohydrate, NMM. The note with it: whole synthesis, scale 23.5 µmol.
“PEPTIDE1{L.S.L.W.S.E.W.S.D.A.S.V.T.A.G.[am]}$$$$V2.0” displayed a crude mass of 38.3 mg and an isolated mass of 9.4 mg.
As to “PEPTIDE1{M.S.E.W.I.T.W.S.P.A.S.I.S.A.G.[am]}$$$$V2.0”, the crude mass stood at 42.7 mg and the isolated mass was 13.7 mg.

Still in this data set, the particulars now being: whole synthesis, scale 27.5 µmol.
In turn, “PEPTIDE1{D.K.G.K.R.M.R.Q.R.M.L.K.A.Q.L.[am]}$$$$V2.0” gave a crude mass of 82.6 mg and an isolated mass of 10.0 mg.
The corresponding values for “PEPTIDE1{G.K.G.H.V.I.R.T.R.M.I.Q.M.E.[am]}$$$$V2.0” are 66.6 mg and 17.6 mg.
The corresponding values for “PEPTIDE1{L.T.E.W.S.Q.W.S.E.A.N.K.S.A.G.[am]}$$$$V2.0” are 16.4 mg and 4.2 mg.
As to “PEPTIDE1{M.K.K.R.H.R.M.I.K.M.N.P.A.D.G.[am]}$$$$V2.0”, the isolated mass is recorded as 26.7 mg.
Consider “PEPTIDE1{M.R.P.W.T.A.W.S.E.A.T.K.L.A.G.[am]}$$$$V2.0”, for which the crude mass is 80.1 mg and the isolated mass amounted to 3.9 mg.
For the substance “PEPTIDE1{M.T.E.W.G.E.W.D.E.A.S.A.T.A.G.[am]}$$$$V2.0”, the crude mass is recorded as 50.9 mg and the isolated mass was 2.6 mg.
For “PEPTIDE1{P.A.P.E.T.V.Q.R.K.K.A.R.I.R.K.[am]}$$$$V2.0” the same measures were 85.9 mg and 23.7 mg.
For “PEPTIDE1{R.Y.M.T.V.K.K.R.F.K.S.S.Q.F.T.[am]}$$$$V2.0” the same measures were 61.5 mg and 2.5 mg.
For “PEPTIDE1{Y.S.N.W.S.P.W.S.A.A.S.S.S.T.A.D.[am]}$$$$V2.0” the same measures were 56.5 mg and 3.1 mg.

The values are drawn from patent EP1152011A1 (KYOWA HAKKO KOGYO CO., LTD., priority 1999, dated 2000).
